3 molecules from article PMC5485919 can be followed below.

Sequences of proteins named here, by UniProt entry; tags and fusion partners are left off. Residues count along the entry.
UniProt P02769, residues 25-607: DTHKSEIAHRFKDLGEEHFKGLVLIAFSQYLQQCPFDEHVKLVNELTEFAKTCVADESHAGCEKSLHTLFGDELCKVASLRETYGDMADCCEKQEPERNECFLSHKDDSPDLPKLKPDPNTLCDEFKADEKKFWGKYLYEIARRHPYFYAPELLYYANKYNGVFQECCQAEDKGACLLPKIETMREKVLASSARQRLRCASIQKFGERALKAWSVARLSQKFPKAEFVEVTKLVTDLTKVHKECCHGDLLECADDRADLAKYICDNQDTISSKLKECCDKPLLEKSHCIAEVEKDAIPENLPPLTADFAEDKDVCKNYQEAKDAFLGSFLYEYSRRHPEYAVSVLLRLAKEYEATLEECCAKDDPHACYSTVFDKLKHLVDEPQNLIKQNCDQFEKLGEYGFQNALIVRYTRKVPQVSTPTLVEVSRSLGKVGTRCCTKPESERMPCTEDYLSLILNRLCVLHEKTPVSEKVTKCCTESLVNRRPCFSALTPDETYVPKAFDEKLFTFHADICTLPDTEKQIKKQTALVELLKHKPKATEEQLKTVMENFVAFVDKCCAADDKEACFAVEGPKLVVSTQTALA

The target of test [1] is bovine serum albumin (bovine) (UniProt P02769). Nature of the test: phage display panning; negative control: the same panning protocol without target cells, in 20 ul NaHCO3 and bovine serum albumin on 96-well polystyrene plates; isolated phages sequenced; only the target purified.
Test [2] addresses T1, recombinant CD59 (UniProt P13987).
T1 sequence: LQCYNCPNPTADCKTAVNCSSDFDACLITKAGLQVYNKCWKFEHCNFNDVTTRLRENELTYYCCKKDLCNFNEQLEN
Nature of the test: condition: 2 ug control peptide with 1 ug recombinant CD59 in 21 ul PBS; cross-linking; 2 ug peptide incubated with 1 ug recombinant CD59 in 21 ul PBS overnight at 4°C; cross-linked with 2 mM DTSSP for 1 hour at room temperature; 15% SDS-PAGE and Western blots with anti-peptide F, anti-control peptide and anti-CD59 antibodies; both purified. (A western blot detects proteins with antibodies after separation by electrophoresis.)

For test [3], the target named is T2, CD59 (endogenous, HUVEC lysate) (human (endogenous in HUVEC)) (UniProt P13987).
T2 sequence: T1 sequence
Nature of the test: native gel or EMSA; 100 ug HUVEC whole-cell lysate incubated with 30 ug peptide F at 4°C for 2 hours; 10% native gel, Western blot with anti-peptide F antibodies; the band of bound peptide F (250 kD) cut from a duplicate gel, trypsin digested and analysed by mass spectrometry; only the binder purified.

The target of test [4] is T1, recombinant CD59. Briefly: cross-linking; 2 ug peptide incubated with 1 ug recombinant CD59 in 21 ul PBS overnight at 4°C; cross-linked with 2 mM DTSSP for 1 hour at room temperature; 15% SDS-PAGE and Western blots with anti-peptide F, anti-control peptide and anti-CD59 antibodies; both purified.
The target of test [5] is T3, Myc-DDK-tagged human CD59 (human) (UniProt P13987).
T3 sequence: T1 sequence
Nature of the test: co-IP; lysate of HEK293 cells transfected with Myc-DDK-CD59 incubated with 500 ug peptide overnight at 4°C; cross-linked with 2 mM DTSSP; immunoprecipitated with anti-DDK antibodies and protein A/G agarose; Western blots with anti-peptide F, anti-DDK and anti-CD59 antibodies; only the binder purified.

Results are given in words; binding and its absence hold for the method and conditions named. For some assays here: In cells and extracts the contact can be indirect. Some entries that bind do so weakly or less than the wild type. For some assays here: Tags and fused reporters may be left off the sequences shown.

Turning to FHENWPS [peptide FHENWPS (peptide F) displayed on M13 phage], the binding entry in test [1] is on record as “no binding”.
As for CPLAYGTW [control peptide (CPLAYGTW)], the binding entry in the test with recombinant CD59 [2] is “no binding”.
For the molecule CFHENWPS [peptide F (synthetic, CFHENWPS)], the binding result (in test [3]; in the test with recombinant CD59 [4]; in test [5]) was “binds” throughout.
